{"source": "patent US12590094B2", "about": "“Compounds for the treatment of neurodegenerative and metabolic disorders” (UNIVERSITY OF FLORIDA RESEARCH FOUNDATION, INCORPORATED, priority 2019, dated 2026)", "system": "PK1 neuroblastoma cells treated with TPrP", "format": "cell-based", "note": "At least one compound was matched to its structure with a doubt left."}
{"smiles": "Cc1ccc(Nc2nccc(N(C)c3ccc4c(C)n(C)nc4c3)n2)cc1S(N)(=O)=O", "note": "[pazopanib, reference compound]", "values": [{"measurement": "neuroprotective activity in the TPrP assay", "result": "entirely lacked neuroprotective activity"}]}
